# Data source: PubChem BioAssay AID1224830 (NIAID, 2016)
# Screen: 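Regulators of TLR4 signalling towards TNF-alpha in macrophage-like cells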 (primary screen)
# Cells: human THP-1 monocytic leukaemia cells, TNF dual-luciferase reporter clone, PMA-differentiated to macrophage-like cells
# Reagent: siRNA pool against human genes, 50 nM
# Duration: LPS for 4 h, given about 3 days after siRNA transfection
# Conditions: bacterial LPS (TLR4 ligand), 10 ng/ml
# Detection: 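Ratio of firefly to renilla light, scaled to the plate median and expressed as a robust z-score per replicate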
# Reading the numbers: TNF reporter robust z-score: higher = stronger TNF reporter response to LPS
# Call rule: 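Each well counts as active if its z-score is over 2.8 or under -1.5; controls are left without a call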
# The whole screen tested about 18,000 reagents; this is a part drawn at random. About 2,900 of all reagents (16%) count as active. 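Calls are made per well; low scores hint the gene aids the LPS response, high scores that it dampens it.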 Repeated entries: four replicate wells of each siRNA pool.
gene,TNF reporter robust z-score,Call
ERICH3 (GeneID 127254),-1.29,inactive
ERICH3 (GeneID 127254),-0.04,inactive
ERICH3 (GeneID 127254),-0.39,inactive
ERICH3 (GeneID 127254),0.34,inactive
ACY1 (GeneID 95),-0.5,inactive
ACY1 (GeneID 95),-0.25,inactive
ACY1 (GeneID 95),-0.11,inactive
ACY1 (GeneID 95),0,inactive
DSCC1 (GeneID 79075),0.48,inactive
DSCC1 (GeneID 79075),0.57,inactive
DSCC1 (GeneID 79075),0.79,inactive
DSCC1 (GeneID 79075),-0.62,inactive
SLC51B (GeneID 123264),0.81,inactive
SLC51B (GeneID 123264),0.47,inactive
SLC51B (GeneID 123264),1.43,inactive
SLC51B (GeneID 123264),1.12,inactive
RWDD3 (GeneID 25950),0.08,inactive
RWDD3 (GeneID 25950),-0.14,inactive
RWDD3 (GeneID 25950),-0.35,inactive
RWDD3 (GeneID 25950),1.17,inactive
OR2A12 (GeneID 346525),-0.14,inactive
OR2A12 (GeneID 346525),0.67,inactive
OR2A12 (GeneID 346525),0.16,inactive
OR2A12 (GeneID 346525),-0.34,inactive
APH1B (GeneID 83464),3.2,active
APH1B (GeneID 83464),0.93,inactive
APH1B (GeneID 83464),-0.58,inactive
APH1B (GeneID 83464),0.65,inactive
SUMO4 (GeneID 387082),3.29,active
SUMO4 (GeneID 387082),3.25,active
SUMO4 (GeneID 387082),-0.74,inactive
SUMO4 (GeneID 387082),0.65,inactive
LAP3 (GeneID 51056),-0.49,inactive
LAP3 (GeneID 51056),0.23,inactive
LAP3 (GeneID 51056),-0.92,inactive
LAP3 (GeneID 51056),-0.65,inactive
GLI4 (GeneID 2738),-1.65,active
GLI4 (GeneID 2738),-1.37,inactive
GLI4 (GeneID 2738),-1.32,inactive
GLI4 (GeneID 2738),-1.47,inactive
LAMA1 (GeneID 284217),-0.57,inactive
LAMA1 (GeneID 284217),-0.17,inactive
LAMA1 (GeneID 284217),-0.02,inactive
LAMA1 (GeneID 284217),-0.13,inactive
KCNK5 (GeneID 8645),0.11,inactive
KCNK5 (GeneID 8645),1.33,inactive
KCNK5 (GeneID 8645),1.11,inactive
KCNK5 (GeneID 8645),0.38,inactive
CKAP5 (GeneID 9793),0.85,inactive
CKAP5 (GeneID 9793),0.2,inactive
CKAP5 (GeneID 9793),1.18,inactive
CKAP5 (GeneID 9793),3.3,active
FAM149A (GeneID 25854),-0.05,inactive
FAM149A (GeneID 25854),-0.63,inactive
FAM149A (GeneID 25854),-0.18,inactive
FAM149A (GeneID 25854),-0.3,inactive
SPPL2A (GeneID 84888),2.57,inactive
SPPL2A (GeneID 84888),0.69,inactive
SPPL2A (GeneID 84888),-0.36,inactive
SPPL2A (GeneID 84888),-0.18,inactive
DIS3L (GeneID 115752),-0.36,inactive
DIS3L (GeneID 115752),-1.18,inactive
DIS3L (GeneID 115752),-0.81,inactive
DIS3L (GeneID 115752),-0.17,inactive
BCL10 (GeneID 8915),-0.57,inactive
BCL10 (GeneID 8915),-0.06,inactive
BCL10 (GeneID 8915),0.63,inactive
BCL10 (GeneID 8915),-0.55,inactive
TMEM119 (GeneID 338773),-0.67,inactive
TMEM119 (GeneID 338773),0.23,inactive
TMEM119 (GeneID 338773),-0.09,inactive
TMEM119 (GeneID 338773),-0.86,inactive
ABT1 (GeneID 29777),-1.85,active
ABT1 (GeneID 29777),-2.11,active
ABT1 (GeneID 29777),-1.83,active
ABT1 (GeneID 29777),-1.72,active
